Binding data for one substance are collected here from PMC5572376.

The chains behind the UniProt entries cited, without tags or fusion partners.
UniProt P99110: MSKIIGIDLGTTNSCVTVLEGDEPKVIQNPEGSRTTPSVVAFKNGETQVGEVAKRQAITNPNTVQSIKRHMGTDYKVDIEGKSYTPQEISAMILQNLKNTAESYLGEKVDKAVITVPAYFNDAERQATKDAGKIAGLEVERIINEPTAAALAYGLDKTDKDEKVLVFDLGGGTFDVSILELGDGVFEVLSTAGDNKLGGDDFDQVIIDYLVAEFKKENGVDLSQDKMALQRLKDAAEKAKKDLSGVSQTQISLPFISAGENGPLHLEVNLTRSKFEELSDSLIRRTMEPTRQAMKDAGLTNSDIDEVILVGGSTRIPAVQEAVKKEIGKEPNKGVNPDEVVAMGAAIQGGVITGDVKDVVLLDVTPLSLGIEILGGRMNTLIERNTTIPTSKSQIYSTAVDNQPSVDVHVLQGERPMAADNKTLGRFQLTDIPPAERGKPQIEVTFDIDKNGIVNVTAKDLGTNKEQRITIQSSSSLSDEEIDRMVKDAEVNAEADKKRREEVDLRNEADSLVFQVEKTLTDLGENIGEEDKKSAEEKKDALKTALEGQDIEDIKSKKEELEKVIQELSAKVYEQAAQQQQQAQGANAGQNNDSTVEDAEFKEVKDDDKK
UniProt P0A031: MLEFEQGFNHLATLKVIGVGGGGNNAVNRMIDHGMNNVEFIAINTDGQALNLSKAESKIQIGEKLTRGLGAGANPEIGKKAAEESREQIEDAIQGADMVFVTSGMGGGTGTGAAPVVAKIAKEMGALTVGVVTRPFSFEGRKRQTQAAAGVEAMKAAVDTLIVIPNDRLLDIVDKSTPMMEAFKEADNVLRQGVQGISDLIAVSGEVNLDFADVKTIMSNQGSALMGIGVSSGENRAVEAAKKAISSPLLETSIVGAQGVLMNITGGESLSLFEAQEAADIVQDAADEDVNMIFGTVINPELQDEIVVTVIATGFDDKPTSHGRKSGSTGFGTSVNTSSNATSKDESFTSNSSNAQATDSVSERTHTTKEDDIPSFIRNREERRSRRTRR

Results are given in words; binding and its absence hold for the method and conditions named. Some results given as binding are weak or reduced against the parent protein; the word gives no strength.

The target in the assay is DnaK (bacterial two-hybrid fusion) (S. aureus) (UniProt P99110). The assay can be described thus: two-hybrid; bacterial two-hybrid (BACTH, T18/T25 adenylate cyclase fusions) in E. coli BTH101; beta-galactosidase activity judged qualitatively by blue colour on X-Gal.

For the substance “FtsZ (bacterial two-hybrid fusion) (from UniProt P0A031 1-390)”, the binding entry was “binds”.
